Patent publication US8304446B2, “Compounds” (Glaxo Group Limited, priority 2009, dated 2012)
Some entries share one result that the patent states for a list of compounds.

Test system: CD4+ CCR4+ T cells
Assay: Chemokine stimulated increases in cellular F-actin content
Format: cell-based, human
Details: PBMC from normal volunteers; antagonist 30 min at 37° C. before agonist for 15 sec; F-actin content by flow cytometry
Protocol: Chemokine Stimulated Increases in Cellular F-Actin Content
Blood was taken from normal volunteers who had taken no medication within the previous ten days and mixed with 1/9 of the volume of 3.8% tri-sodium citrate solution. Chemokine-induced increases in the F-actin content of CD4+ CCR4+ T cells were measured by a modification of the method of Pilette et al. (Eur. Respir. J; 23: 876-884, 2004). Peripheral blood mononuclear cells (PBMC) were isolated by dextran sedimentation followed by Percoll density gradient centrifugation. The PBMCs were incubated with FITC-conjugated anti-human CD4 and PE-conjugated anti-CCR4 antibodies or appropriate isotype controls for 15 min. The cell suspensions were then centrifuged at 400 g for 10 min and the pellets resuspended in assay buffer (phenol red-free RPMI 1640 medium containing 10 mM HEPES and 0.1% bovine serum albumin) at 10^7/mL. The resulting cell suspension was incubated with antagonist or vehicle (0.1% DMSO) for 30 min at 37° C. before stimulation with the agonist for 15 sec. The assay was terminated by addition of 3% formaldehyde. […] The cells were washed once more with PBS and the relative F-actin content of the cells was measured flow cytometrically. The mean fluorescence intensity of 1000 CD4^+ CCR4^+ cells per sample was determined and expressed as a fraction of the mean intensity of the CD4^+ CCR4^− cells in that sample.

Compound: CNCC(=O)NCc1cccc(Cn2nc(NS(=O)(=O)c3ccc(Cl)s3)c3c(OC)cccc32)c1.O=C(O)C(F)(F)F [Example 85, N^1-[(3-{[3-{[(5-Chloro-2-thienyl)sulfonyl]amino}-4-(methyloxy)-1H-indazol-1-yl]methyl}phenyl)methyl]-N^2-methylglycinamide trifluoroacetate]
- pA2: ≥ 6.9
